Measured values published in US20050164233A1, “Compositions, kits and methods for identification and modulation of type I diabetes” (priority 2000, published 2005).
For at least one compound, name, drawing or mass did not settle the structure.

Tested on: Vα24JαQ T cell clone GW4 (nondiabetic, IL-4+)
Assay: Cytokine secretion (ELISA) from anti-CD3-activated Vα24JαQ T cell clone GW4, inhibitor studies
Type: cell-based, human
Conditions: IL-4+ clone, plate-bound anti-CD3 1 μg/ml, 4 h, 10 nM wortmannin, 10 μM LY294002, 50 μM PD98059, 50 μM SB203580
Procedure: Single, Vα24-positive, CD4/8 negative single-cell sorts were grown on irradiated allogeneic feeders at 50,000 cells per well with 5,000 cells per well irradiated (5,000 rads) 721.221 lymphoblastoid cells with 1 μg/ml PHA-P, IL-2 and IL-7 each at 10 units/ml (Boehringer Mannheim) and propagated as described (Wilson et al. (1998) Nature 391: 177-181). Clones positive for Vα24 and NKR-P1A by flow cytometry and a Vα24JαQ CDR3 T cell antigen receptor sequence were assayed for cytokine secretion in C1R/CD1s restriction experiments. For cytokine secretion and inhibitor studies, Vα24JαQ T cell clones GW4 (nondiabetic) and ME10 (diabetic) at 5×10^4 cells per well were activated with plate-bound anti-CD3 or Ig control at 1 μg/ml. Secreted IL-4 and IFN-γ were assayed by ELISA after 4 h of activation as described (Wilson et al. (1998) Nature 391: 177-181). Optimal concentrations of inhibitors previously were determined by inhibitor dose-response experiments. The concentrations of inhibitors used were 10 nM wortmannin; 10 μM LY294002, 50 μM PD98059, a mitogen-activated protein kinase kinase inhibitor, and 50 μM SB203580, a p38 kinase inhibitor. […] Calcium flux was determined by loading cells with indo-1 as per the manufacturer's specifications (Molecular Probes), followed by activation with anti-CD3 at 10 μg/ml. Maximal calcium flux was determined by the addition of ionomycin.

| Compound | anti-CD3-induced IL-4 secretion |
| --- | --- |
| O=c1cc(N2CCOCC2)oc2c(-c3ccccc3)cccc12 [LY294002] | blocked |
| COC[C@H]1OC(=O)c2coc3c2[C@@]1(C)C1=C(C3=O)[C@@H]2CCC(=O)[C@@]2(C)C[C@H]1OC(C)=O [wortmannin] | blocked |
